Reference: US8664379B2, “Fused heterocyclic compounds as ion channel modulators” (Gilead Sciences, Inc., priority 2008, dated 2014)
The name of at least one read-out is uncertain.

Sequences of proteins named here, by UniProt entry; tags and fusion partners are left off.
UniProt Q14524, whole entry: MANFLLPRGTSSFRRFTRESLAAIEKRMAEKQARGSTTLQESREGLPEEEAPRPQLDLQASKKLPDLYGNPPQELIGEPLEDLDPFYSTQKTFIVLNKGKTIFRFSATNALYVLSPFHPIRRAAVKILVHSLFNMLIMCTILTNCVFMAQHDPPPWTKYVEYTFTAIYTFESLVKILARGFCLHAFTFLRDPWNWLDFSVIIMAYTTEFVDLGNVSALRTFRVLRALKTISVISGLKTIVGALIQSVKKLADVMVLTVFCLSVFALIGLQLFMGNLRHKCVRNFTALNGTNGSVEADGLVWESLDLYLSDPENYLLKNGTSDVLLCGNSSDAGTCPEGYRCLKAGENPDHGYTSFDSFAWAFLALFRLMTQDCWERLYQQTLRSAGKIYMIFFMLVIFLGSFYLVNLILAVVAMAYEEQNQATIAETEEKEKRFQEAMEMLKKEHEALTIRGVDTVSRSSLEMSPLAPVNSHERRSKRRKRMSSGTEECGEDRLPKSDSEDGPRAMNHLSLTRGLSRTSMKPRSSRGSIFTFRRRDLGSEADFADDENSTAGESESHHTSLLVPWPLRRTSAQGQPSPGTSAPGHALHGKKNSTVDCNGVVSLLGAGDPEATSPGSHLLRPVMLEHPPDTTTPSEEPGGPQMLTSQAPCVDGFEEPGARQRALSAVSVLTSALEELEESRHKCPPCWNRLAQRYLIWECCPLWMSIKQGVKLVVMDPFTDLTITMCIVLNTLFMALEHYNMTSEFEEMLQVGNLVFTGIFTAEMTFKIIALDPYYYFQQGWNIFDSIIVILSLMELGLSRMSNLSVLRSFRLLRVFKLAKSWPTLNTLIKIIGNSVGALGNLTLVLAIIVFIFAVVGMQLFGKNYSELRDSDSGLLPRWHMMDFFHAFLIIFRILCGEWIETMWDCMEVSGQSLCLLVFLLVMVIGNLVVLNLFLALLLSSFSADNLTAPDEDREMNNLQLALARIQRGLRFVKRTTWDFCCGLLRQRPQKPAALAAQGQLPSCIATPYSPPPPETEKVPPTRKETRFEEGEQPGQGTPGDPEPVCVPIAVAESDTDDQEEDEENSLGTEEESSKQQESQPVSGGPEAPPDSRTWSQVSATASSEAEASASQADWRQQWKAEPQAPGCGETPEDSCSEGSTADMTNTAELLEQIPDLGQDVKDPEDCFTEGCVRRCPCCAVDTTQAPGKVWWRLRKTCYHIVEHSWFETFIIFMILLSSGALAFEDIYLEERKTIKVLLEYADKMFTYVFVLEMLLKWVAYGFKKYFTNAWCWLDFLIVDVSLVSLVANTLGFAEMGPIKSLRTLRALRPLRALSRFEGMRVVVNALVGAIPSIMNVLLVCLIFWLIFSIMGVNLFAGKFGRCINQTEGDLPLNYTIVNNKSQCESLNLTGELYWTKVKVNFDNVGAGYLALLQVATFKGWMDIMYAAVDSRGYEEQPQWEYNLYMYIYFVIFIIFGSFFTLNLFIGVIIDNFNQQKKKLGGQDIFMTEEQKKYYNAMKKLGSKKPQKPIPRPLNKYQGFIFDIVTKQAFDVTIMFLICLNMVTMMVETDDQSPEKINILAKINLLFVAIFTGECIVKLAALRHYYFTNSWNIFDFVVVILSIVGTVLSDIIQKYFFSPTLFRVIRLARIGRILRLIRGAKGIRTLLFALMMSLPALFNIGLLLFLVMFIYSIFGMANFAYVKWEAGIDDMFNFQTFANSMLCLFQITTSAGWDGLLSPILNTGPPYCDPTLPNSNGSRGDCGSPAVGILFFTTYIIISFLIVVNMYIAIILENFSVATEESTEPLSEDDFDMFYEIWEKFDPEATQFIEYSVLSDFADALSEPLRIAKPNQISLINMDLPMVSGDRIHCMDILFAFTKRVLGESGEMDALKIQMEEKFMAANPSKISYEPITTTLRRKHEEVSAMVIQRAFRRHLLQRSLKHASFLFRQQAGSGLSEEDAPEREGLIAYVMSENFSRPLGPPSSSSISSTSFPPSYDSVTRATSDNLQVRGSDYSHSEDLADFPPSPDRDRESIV

Molecular target: wild-type human cardiac sodium channel, hNav1.5 (late sodium current) (Homo sapiens, UniProt Q14524)
Experiment: Late INa screening assay (PatchXpress whole cell patch clamp)
Format: cell-based
Conditions: 10 μM test compound; HEK293 cells expressing hNav1.5; late INa generated with 10 μM Tefluthrin (some experiments 50 nM ATX II)
Protocol: The late sodium current (Late INa) and peak sodium current (Peak INa) assays were performed on an automated electrophysiology platform, PatchXpress 7000A (MDS Analytical Technologies, Sunnyvale, Calif.), which uses the whole cell patch clamp technique to measure currents through the cell membrane of up to 16 cells at a time. The assay used an HEK293 (human embryonic kidney) cell line heterologously expressing the wild-type human cardiac sodium channel, hNav1.5, purchased from Millipore (Billerica, Mass.). No beta subunits were coexpressed with the Na channel alpha subunit. Cells were maintained with standard tissue culture procedures and stable channel expression was maintained with 400 μg/ml Geneticin in the culture medium. […]
For both the Late INa and Peak INa assays, series resistance compensation was set to 50% and whole-cell compensation was performed automatically. […] Currents through open sodium channels were automatically recorded and stored in the DataXpress2 database (MDS Analytical Technologies, Sunnyvale, Calif.). […]
All compounds were tested to determine their activity in blocking the late sodium current. […] Both activators generate late components that are large enough that block of the late component by compounds can be measured easily. […]

In the case of `CC(O)CN1C(=O)CCc2cc(-c3ccc(OC(F)(F)F)cc3)ccc21` (stereo not shown) [Compound 89, 1-(2-hydroxypropyl)-6-[4-(trifluoromethoxy)phenyl]-3,4-dihydroquinolin-2(1H)-one], the “Late INa % blk (10 μM test cmpd)” value is reported as 48%.
